These results are taken from paper PMC11790958, “Molecular mechanism of condensin I activation by KIF4A” (The EMBO Journal, 2024).

Data set [1] has as its system condensin I pentamer (CI, wild type) (Homo sapiens). The experiment in a line: EMSA. As to conditions: 2.5 mM Mg2+; EMSA: 50 nM DNA, 20 mM HEPES pH 8, 150 mM KCl, 2.5 mM MgCl2, 10% glycerol, 1 mM DTT, on ice 20 min; 2% agarose, 0.5x TB; recombinant protein; protein details: Strep; label: 5' Cy5 on reverse strand (S2). A general note: In EMSA bound probe runs differently from free probe, usually more slowly.

Data set [2] has as its system condensin I tetramer lacking NCAPD2 (CIΔD2) (Homo sapiens). Put plainly: EMSA. The following applies: 2.5 mM Mg2+, minimal reduction, higher shifted band (may multimerise); EMSA: 50 nM DNA, 20 mM HEPES pH 8, 150 mM KCl, 2.5 mM MgCl2, 10% glycerol, 1 mM DTT, on ice 20 min; 2% agarose, 0.5x TB; recombinant protein; protein details: Strep; label: 5' Cy5 on reverse strand (S2).

For at least one entry, the source does not settle the construct or the ends of the probe. For some assays here: A weaker result is weaker than the reference pair of the same experiment. For some assays here: At least one verdict rests on a figure or table, not on a statement of the authors.

Take “GGTGTGACAGGGTGTGACAGGGTGTGACAGGGTGTGACAGGGTGTGACAG (double strand) [Cy5 50 bp dsDNA]”: the binding result in data set [1] is on record as “binds”; in data set [2], “binds more weakly”.
